{"sequences": {"note": "Chains of the proteins cited; added tags and fusions are not shown. Residues count along the entry.", "UniProt O14508, 32-198": "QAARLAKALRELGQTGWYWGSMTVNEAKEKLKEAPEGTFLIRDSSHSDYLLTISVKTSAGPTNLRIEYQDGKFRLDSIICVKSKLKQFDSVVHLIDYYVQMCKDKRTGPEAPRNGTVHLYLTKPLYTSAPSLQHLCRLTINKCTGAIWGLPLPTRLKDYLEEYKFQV"}, "source": "paper PMC10564737", "about": "“Structure-based design of a phosphotyrosine-masked covalent ligand targeting the E3 ligase SOCS2” (Nature Communications, 2023)", "biological_target": "T1, HiBiT-SOCS2 fusion in HeLa cells (Homo sapiens, UniProt O14508)", "T1 construct": "encoding SOCS2 (32–198) in pBiT3.1-N expression vector; expressed in transfected cells; host or cells: HeLa", "assay": "Split-NanoLuc CETSA, live-cell mode", "type": "cell-based", "set-up": "reference not given here", "settings": "50uM 20hrs", "method": "One of the challenges with small-molecule binders displaying on-target activity with recombinant proteins, is to translate their utility to a cellular context. […] One of the advantages of CETSA is that target engagement can be monitored without the need for the development of a cell-permeable tracer molecule.\nWe utilized CETSA in a live-cell mode to evaluate the efficacy and rank the different prodrugs. We treated live HeLa cells with 50 μM compound (prodrugs) for 20 h and monitored Tagg shift as a proxy for the combo of prodrug permeability and unmasking (Fig. 4d). […] The observation could be because the POM group unmasking requires only esterase unlike the reliance of compounds 21–23 on esterase and phosphoramidase for unmasking an aryloxy phosphoramidate group.\nN-terminal HiBiT-SOCS2 fusion was generated by encoding SOCS2 (32–198) in pBiT3.1-N expression vector (Promega). The transfection and target engagement assay were performed by modifying a NanoLuc target engagement protocol (Promega) with some small modifications. Briefly, HiBiT-SOCS2 fusion construct was transfected into HeLa cells using FuGENE HD (Promega) according to the manufacturer’s protocol. HiBiT-SOCS2 fusion construct was diluted into Transfection Carrier DNA (Promega) at a mass ratio of 1:100 or 1:10 for permeabilised and live-cell CETSA respectively. FuGENE HD was added at a ratio of 1:3 (μg DNA: μL FuGENE HD). 1 part (vol) of FuGENE HD complexes thus formed were combined with 20 parts (vol) of HeLa cells suspended at a density of 2 × 10^5 cells/mL, followed by incubation in a humidified, 37 °C + 5% CO2 incubator. After 20 h of incubation HeLa cells were detached and resuspended at a density of 2.5 × 10^5 cells/mL in Opti-MEM media without serum or phenol red but supplemented with protease inhibitor cocktail (Roche). Compounds stocks were added to cell suspension to maintain a final DMSO concentration of 1%. For the permeabilised assay format, 96-well PCR plates (Thermo) were pre-treated with digitonin to have a final well concentration of 50 μg/ml. 50 μl Opti-MEM cell suspension was then aliquoted to each well of the 96-well plate. The plates are then covered with microporous tape sheet (Qiagen) prior to incubation in a humidified, 37 °C + 5% CO2 incubator. Post-incubation we heat the PCR plates in 16-point temperature (split across two runs) curve spanning degrees 40-72 °C temperature span (CFX96 Touch Real-Time PCR Detection System, BioRad). The thermal cycler block was allowed to rise to the designated temperatures prior to placement of the PCR plates into the heating block and heat treatment for 3 min. After incubating the plates at room temperature for over 3 min, 50 μl of the Nano-Glo HiBiT Lytic mix (Promega) was added to each well. Samples were mixed by pipetting and placing the plate on an orbital shaker (600 rpm) for 5 min. 20 μl of the samples (in triplicates) were transferred to a AlphaPlate-384 plate (Perkin Elmer). Luminescence was recorded with GloMax Discover Microplate Reader (Promega). To generate apparent Tagg curves, the data is first converted to percent stabilized by relating the observed luminescence to the luminescence of the lowest temperature (40 °C) for that given sample. Data are then fitted to obtain apparent Tagg values using the Boltzmann Sigmoid equation using Graphpad Prism 9.", "note": "Values joined by “and” are separate entries in the source; they are usually repeats but may differ in a detail not shown here. Identical values can stand only once. Further values from the same series stand in other lists.", "data": [{"smiles": "O=C(CCl)Nc1cccc(CNC(=O)[C@H](Cc2ccc(OP(=O)(O)O)cc2)NC(=O)Cc2ccc(F)cc2)c1", "note": "[MN551]", "values": [{"measurement": "Produrg CETSA screening, raw signal", "setting": "n=1, temperature point 1 of 16, temperature not given", "result": "44774 and 26778 and 30284"}, {"measurement": "Produrg CETSA screening, raw signal", "setting": "n=1, temperature point 2 of 16, temperature not given", "result": "44554 and 37931 and 56371"}, {"measurement": "Produrg CETSA screening, raw signal", "setting": "n=1, temperature point 3 of 16, temperature not given", "result": "40559 and 36111 and 57202"}, {"measurement": "Produrg CETSA screening, raw signal", "setting": "n=3, Temp, 0C 40", "result": "187874 and 194851 and 193056"}, {"measurement": "Produrg CETSA screening, raw signal", "setting": "n=3, Temp, 0C 40.9", "result": "177840 and 189177 and 186823"}, {"measurement": "Produrg CETSA screening, raw signal", "setting": "n=3, Temp, 0C 42.9", "result": "175062 and 180886 and 183916"}, {"measurement": "Produrg CETSA screening, raw signal", "setting": "n=3, Temp, 0C 45.8", "result": "172872 and 173976 and 188111"}, {"measurement": "Produrg CETSA screening, raw signal", "setting": "n=3, Temp, 0C 49.5", "result": "227413 and 234476 and 248725"}, {"measurement": "Produrg CETSA screening, raw signal", "setting": "n=3, Temp, 0C 52.4", "result": "133609 and 146998 and 149874"}, {"measurement": "Produrg CETSA screening, raw signal", "setting": "n=3, Temp, 0C 54.1", "result": "107344 and 100683 and 108494"}, {"measurement": "Produrg CETSA screening, raw signal", "setting": "n=3, Temp, 0C 55", "result": "79349 and 95654 and 92417"}, {"measurement": "Produrg CETSA screening, raw signal", "setting": "n=3, Temp, 0C 56", "result": "95720 and 103700 and 105998"}, {"measurement": "Produrg CETSA screening, raw signal", "setting": "n=3, Temp, 0C 57.1", "result": "87545 and 101422 and 108266"}, {"measurement": "Produrg CETSA screening, raw signal", "setting": "n=3, Temp, 0C 59.2", "result": "58885 and 77117"}]}]}
